Results deposited as PubChem BioAssay AID720505 (Drosophila RNAi Screening Center, 2013)

- Aim: 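Genes needed for store-operated calcium entry in fly cells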 (primary screen)
- System: Drosophila S2R+ cells
- Knock-down reagent: long dsRNA against Drosophila genes
- Treatment: thapsigargin (2 µM) in calcium-free buffer to empty internal stores, then 2 mM calcium added back
- Measurement: 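Stores emptied by 2 µM thapsigargin without calcium, then 2 mM calcium re-added; fluo-4 fluorescence followed by FLIPR in 384-well plates, per-well averaged endpoint, raw; two screen passes, some wells retested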
- Scale: calcium signal and retest calcium signal: higher = more calcium entry after store depletion
- Hit rule: 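Knock-downs counted as hits when calcium entry dropped relative to STIM1 positive and Rho1 negative controls present on each plate; roughly 1500 genes called, with reductions of differing size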
- Calls: active = called as lowering calcium entry; inactive = not called
The screen tested about 20,000 reagents; below is an unselected part of those with a known target gene and a result. In the full data, about 2,100 (10%) were called active. 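Raw plate signals without normalisation; calls rest on control-based scores that were not deposited; replicate 2 separates called from uncalled poorly.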 Reagents against one gene are numbered here. Names joined by + are all predicted targets of the reagent. Not stated in the record: the amount of reagent, the time to read-out.

| predicted target | reagent | calcium signal, replicate 1 | calcium signal, replicate 2 | retest calcium signal, replicate 1 | retest calcium signal, replicate 2 | outcome |
| --- | --- | --- | --- | --- | --- | --- |
| CG10674 | 1 | 99.9 | 86.4 | – | – | inactive |
| CG8152 | 1 | 124 | 206 | – | – | inactive |
| hwt (heavyweight) | 1 | 99 | 159 | – | – | inactive |
| hwt (heavyweight) | 2 | 106 | 86.8 | – | – | inactive |
| CG33017 | 1 | 163 | 192 | – | – | inactive |
| CG33017 | 2 | 185 | 142 | – | – | inactive |
| Ama (Amalgam) | 1 | 122 | 163 | – | – | inactive |
| CG6712 | 1 | 83.2 | 103 | 90.3 | 113 | inactive |
| CG6712 | 2 | 174 | 78 | – | – | inactive |
| CG8229 | 1 | 132 | 140 | – | – | inactive |
| CG3847 | 1 | – | – | – | – | active |
| CG3847 | 2 | 75 | 115 | – | – | inactive |
| Ric (Ras-related protein interacting with calmodulin) | 1 | 137 | 82.6 | – | – | inactive |
| CG17568 | 1 | 161 | 99.5 | 146 | 134 | inactive |
| zen2 (zerknullt-related) | 1 | 121 | 170 | – | – | inactive |
| MP1 (Melanization Protease 1) | 1 | 62.5 | 60.2 | 112 | 109 | active |
| scra (scraps) | 1 | 120 | 84.5 | – | – | inactive |
| Samtor (S-adenosylmethionine sensor upstream of TORC1) | 1 | 63.9 | 200 | – | – | active |
| CG33111 | 1 | 180 | 129 | – | – | inactive |
| CG33111 | 2 | 172 | 149 | – | – | inactive |
| CG46298 | 1 | 151 | 184 | – | – | inactive |
| CG4617 | 1 | 100 | 92.3 | – | – | inactive |
| CG5973 | 1 | 139 | 241 | – | – | inactive |
| ENGase (Endo-beta-N-acetylglucosaminidase) | 1 | 155 | 172 | – | – | inactive |
| ENGase (Endo-beta-N-acetylglucosaminidase) | 2 | 100 | 104 | – | – | inactive |
| stx (stuxnet) | 1 | 122 | 98.4 | – | – | inactive |
| stx (stuxnet) | 2 | 129 | 131 | – | – | inactive |
| stx (stuxnet) | 3 | 98.3 | 99.2 | – | – | inactive |
| mRpL21 (mitochondrial ribosomal protein L21) | 1 | 74.4 | 164 | – | – | inactive |
| CG16815 | 1 | 101 | 145 | – | – | inactive |
| Picot | 1 | 116 | 81.5 | – | – | inactive |
| CG11837 | 1 | 60 | 87.1 | – | – | active |
| Sf3a1 (Splicing factor 3a subunit 1) | 1 | 120 | 116 | – | – | active |
| COX6AL2 (Cytochrome c oxidase subunit 6A-like 2) | 1 | 67.3 | 96.5 | – | – | active |
| vvl (ventral veins lacking) | 1 | 107 | 73.5 | – | – | inactive |
| CG11504 | 1 | 132 | 136 | – | – | inactive |
| Ubc87F (Ubiquitin conjugating enzyme 87F) | 1 | 123 | 198 | – | – | inactive |
| kmr (kramer) | 1 | – | – | – | – | active |
| kmr (kramer) | 2 | 84.5 | 149 | – | – | inactive |
| kmr (kramer) | 3 | 102 | 189 | – | – | inactive |
| kmr (kramer) | 4 | 103 | 88 | – | – | inactive |
| atl (atlastin) | 1 | 220 | 194 | – | – | inactive |
| CG10559 | 1 | 210 | 109 | – | – | inactive |
| Ir51b (Ionotropic receptor 51b) | 1 | 110 | 166 | – | – | inactive |
| BORCS6 (BLOC-1 related complex subunit 6) | 1 | 85.5 | 94.3 | – | – | inactive |
| CG13305 | 1 | 81.2 | 63.4 | – | – | inactive |
| CG34210 | 1 | 95.5 | 145 | – | – | inactive |
| CG33269 | 1 | 119 | 143 | – | – | inactive |
| CG11396 | 1 | 87.8 | 137 | – | – | inactive |

Copied from the list.
Result for kmr (kramer) #1 in “outcome”: active
Under “calcium signal, replicate 1”, CG8229 has 132
For “calcium signal, replicate 2”, Ubc87F (Ubiquitin conjugating enzyme 87F) has 198
Value for stx (stuxnet) #1 under “calcium signal, replicate 1”: 122
Result for MP1 (Melanization Protease 1) in “retest calcium signal, replicate 1”: 112
Value of CG4617 under “calcium signal, replicate 1”: 100

The results go on.
| predicted target | reagent | calcium signal, replicate 1 | calcium signal, replicate 2 | retest calcium signal, replicate 1 | retest calcium signal, replicate 2 | outcome |
| --- | --- | --- | --- | --- | --- | --- |
| Dph1 (Diphthamide biosynthesis 1) | 1 | 132 | 105 | – | – | inactive |
| loj (logjam) | 1 | 97 | 140 | – | – | inactive |
| CG13280 | 1 | 64.6 | 92.9 | – | – | active |
| EloB (Elongin B) | 1 | 165 | 160 | – | – | inactive |
| CG9903 | 1 | 82.1 | 128 | – | – | inactive |
| CG5267 | 1 | 167 | 174 | – | – | inactive |
| CG34011 | 1 | 100 | 115 | – | – | inactive |
| CG1368 | 1 | 106 | 87.2 | – | – | inactive |
| crq (croquemort) | 1 | 85.7 | 133 | – | – | inactive |
| CG13192 | 1 | 99.8 | 142 | – | – | inactive |
| Trf4-2 (Topoisomerase related function 4-2) | 1 | 147 | 146 | – | – | inactive |
| CG17734 | 1 | 127 | 140 | 7625 | 146 | inactive |
| Mmp1 (Matrix metalloproteinase 1) | 1 | 118 | 223 | – | – | inactive |
| eIF3k (eukaryotic translation initiation factor 3 subunit k) | 1 | 68 | 96.5 | – | – | active |
| Bre1 | 1 | 62.7 | 120 | – | – | active |
| dbr (debra) | 1 | 90.7 | 123 | – | – | inactive |
| CG6051 | 1 | 142 | 158 | – | – | inactive |
| CG46385 | 1 | 178 | 97.3 | – | – | inactive |
| CG46385 | 2 | 99.3 | 155 | – | – | inactive |
| kkv (krotzkopf verkehrt) | 1 | 74.5 | 118 | – | – | active |
| St1 (Sulfotransferase 1) | 1 | 62.5 | 149 | – | – | active |
| kel (kelch) | 1 | 84.1 | 113 | – | – | inactive |
| Coprox (Coproporphyrinogen oxidase) | 1 | 105 | 160 | 123 | 99.7 | inactive |
| Ugt305A1 (UDP-glycosyltransferase family 305 member A1) | 1 | 73.3 | 102 | – | – | inactive |
| Rint1 (RAD50 interactor 1) | 1 | 137 | 90 | – | – | inactive |
| CG14811 | 1 | 118 | 184 | – | – | inactive |
| SmydA-2 (SET and MYND domain containing, arthropod-specific, member 2) | 1 | 46.7 | 105 | – | – | active |
| TMEM216 + CG11760 | 1 | 113 | 124 | – | – | inactive |
| Iyd (Iodotyrosine deiodinase) | 1 | 109 | 116 | – | – | inactive |
| Iyd (Iodotyrosine deiodinase) | 2 | 92.4 | 105 | – | – | inactive |
| CG11263 | 1 | 89.4 | 97.9 | – | – | inactive |
| Sf3b3 (Splicing factor 3b subunit 3) | 1 | 76.8 | 83.3 | – | – | active |
| Cib2 (Calcium and integrin binding family member 2) | 1 | 181 | 99.3 | – | – | inactive |
| cathD (cathepsin D) | 1 | 85.1 | 88.7 | – | – | inactive |
